How the values were obtained:
[1] = general procedure: Fmoc solid-phase peptide synthesis; Rink AM polystyrene; HBTU/HOBt/DIPEA; HOAt/DIC; HOAt/DIC with 2,4,6-collidine; details: whole synthesis, scale 0.25 mmol, trifluoroacetate
[2] = general procedure: Fmoc solid-phase peptide synthesis; Fmoc-Rink amide AM polystyrene; HBTU/HOBt/DIPEA; HOAt/DIC; HOAt/DIC with 2,4,6-collidine; details: whole synthesis, scale 0.25 mmol, trifluoroacetate

Substance	isolated mass [1]	isolated yield [1]	isolated yield ([2]; from 0.25 mmol of Rink AM resin)	isolated mass [2]
Ac-c[Dap-His-D-Phe-Arg-Trp-Asp]-Pro-Pro-Arg-Asp-Lys-Lys[(2-{2-[16-(tetrazol-5-yl)hexadecanoylamino]ethoxy}ethoxy)acetyl]-NH2	0.032 mmol	13% yield		
Ac-homoCys(Trt)-His(Trt)-D-Phe-Arg(Pbf)-Trp(Boc)-Cys(Trt)-Pro-Pro-Lys(Boc)-Glu(OtBu)-Lys(ivDde)-Lys(Mtt)-NH-RinkAM-polystyrene			10% yield	51 mg
